According to PMC8456271:

T1: DDIT4 (endogenous, murine liver) (mouse (endogenous in murine liver)) (UniProt Q9D3F7)
T1 sequence: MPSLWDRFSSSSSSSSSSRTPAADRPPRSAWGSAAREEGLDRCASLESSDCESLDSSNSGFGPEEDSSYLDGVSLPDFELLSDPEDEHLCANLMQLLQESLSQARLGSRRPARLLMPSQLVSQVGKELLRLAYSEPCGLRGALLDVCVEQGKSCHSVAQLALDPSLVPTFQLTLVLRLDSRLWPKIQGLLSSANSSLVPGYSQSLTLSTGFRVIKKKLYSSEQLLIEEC

T2: FLAG‐tagged WT DDIT4 (DNA damage‐induced transcript 4) (UniProt Q9NX09)
T2 sequence: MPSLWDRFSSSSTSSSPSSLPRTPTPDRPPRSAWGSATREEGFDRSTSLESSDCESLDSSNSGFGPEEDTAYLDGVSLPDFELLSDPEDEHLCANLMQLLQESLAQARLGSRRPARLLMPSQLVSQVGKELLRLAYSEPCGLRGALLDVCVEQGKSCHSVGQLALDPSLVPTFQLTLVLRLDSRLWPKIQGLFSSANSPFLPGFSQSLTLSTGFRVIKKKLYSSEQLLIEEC


How the values were obtained:
[1] = biological target: T1, DDIT4 (endogenous, murine liver) (mouse (endogenous in murine liver)); assay: co-IP; livers of C57/BL mice fed an MCD diet for 4 weeks; IP with anti‐DDIT4, endogenous proteins
[2] = biological target: T2, FLAG‐tagged WT DDIT4 (DNA damage‐induced transcript 4); assay: co-IP; primary murine hepatocytes infected with Ad‐FLAG‐DDIT4, PA (0.4 × 10^−3 M) for 12 h; IP with anti‐FLAG
[3] = biological target: p38 (endogenous, mouse) (mouse (endogenous in primary murine hepatocytes and murine liver)); assay: co-IP; livers of C57/B6 mice injected with adenovirus carrying DDIT4 shRNA or control adenovirus, MCD feeding for 4 weeks; IP with anti‐p38, endogenous proteins

Molecule	binding [1]	binding [2]	binding [3]
p38 (endogenous, mouse)	binds	binds	–
MKK3 (endogenous, mouse) (protein, UniProt O09110 1-347) MESPAASPPASLPQTKGKSKRKKDLRISCVSKPPVSNPTPPRNLDSRTFITIGDRNFEVEADDLVTISELGRGAYGVVEKVRHAQSGTIMAVKRIRATVNTQEQKRLLMDLDINMRTVDCFYTVTFYGALFREGDVWICMELMDTSLDKFYRKVLEKNMKIPEDILGEIAVSIVRALEHLHSKLSVIHRDVKPSNVLINKEGHVKMCDFGISGYLVDSVAKTMDAGCKPYMAPERINPELNQKGYNVKSDVWSLGITMIEMAILRFPYESWGTPFQQLKQVVEEPSPQLPADQFSPEFVDFTSQCLRKNPAERMSYLELMEHPFFTLHKTKKTDIAAFVKEILGEDS	–	–	binds

These are yes or no findings as the source states them, for the method shown. In cells and extracts the contact can be indirect. Binding calls can cover weak binding; strength is not graded here. For part of these data: Where a sequence is shown, tags or fusion partners need not be part of it.
